# Patent US20230272002A1, “PHOTOREDOX PROTEIN MODIFICATION” (THE ROSALIND FRANKLIN INSTITUTE, priority 2020, published 2023)
# At least one structure is not confirmed: it was looked up by name or label, or the drawing left a doubt.
# Biological target: T1, KDM4A (Homo sapiens, UniProt O75164)
# T1 sequence (O75164 1-1064): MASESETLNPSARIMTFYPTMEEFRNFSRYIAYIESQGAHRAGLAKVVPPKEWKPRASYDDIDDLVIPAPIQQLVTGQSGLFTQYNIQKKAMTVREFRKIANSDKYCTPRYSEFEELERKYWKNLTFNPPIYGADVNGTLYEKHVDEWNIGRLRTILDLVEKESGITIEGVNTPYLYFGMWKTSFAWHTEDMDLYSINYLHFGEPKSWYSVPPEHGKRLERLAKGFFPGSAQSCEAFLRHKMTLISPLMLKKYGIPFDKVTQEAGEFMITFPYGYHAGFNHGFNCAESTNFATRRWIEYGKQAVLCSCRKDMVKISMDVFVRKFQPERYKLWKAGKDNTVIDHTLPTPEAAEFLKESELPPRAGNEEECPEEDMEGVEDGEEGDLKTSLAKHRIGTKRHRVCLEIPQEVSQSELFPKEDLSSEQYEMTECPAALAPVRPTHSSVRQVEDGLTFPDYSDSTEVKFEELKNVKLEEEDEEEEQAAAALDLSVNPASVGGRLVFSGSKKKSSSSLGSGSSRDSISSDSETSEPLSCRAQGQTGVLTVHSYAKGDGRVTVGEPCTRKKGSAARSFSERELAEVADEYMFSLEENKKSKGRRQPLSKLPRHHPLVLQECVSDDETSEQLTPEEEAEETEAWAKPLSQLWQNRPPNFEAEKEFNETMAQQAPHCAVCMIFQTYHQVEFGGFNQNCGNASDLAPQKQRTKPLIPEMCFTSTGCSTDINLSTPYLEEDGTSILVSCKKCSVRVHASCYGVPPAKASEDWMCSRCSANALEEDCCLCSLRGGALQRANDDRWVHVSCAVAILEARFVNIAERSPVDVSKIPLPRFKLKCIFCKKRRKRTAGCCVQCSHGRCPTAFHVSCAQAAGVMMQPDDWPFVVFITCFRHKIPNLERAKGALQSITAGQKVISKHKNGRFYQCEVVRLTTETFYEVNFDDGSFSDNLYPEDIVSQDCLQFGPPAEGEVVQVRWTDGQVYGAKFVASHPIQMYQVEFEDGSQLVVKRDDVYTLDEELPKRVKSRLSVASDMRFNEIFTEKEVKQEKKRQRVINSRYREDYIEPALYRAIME
# Assay: Zn ejection assay (TSQ Zn(II) fluorophore)
# Type: biochemical
# Settings: 25 μM Ebselen, 2 μM KDM4A, 50 mM HEPES pH 7.5, 37° C.
# Protocol: Zn ejection assay was performed using N-(6-nethoxy-8-quinolyl)-p-toluenesulfonamide (TSQ) (Enzo) Zn(II) fluorophore as described with minor modifications28,33. In brief, assays were performed in 384 well black μCLEAR® non-binding plates (Grenier) using a reaction volume of 100 μL at 37° C. on a BMG CLARIOstar (360ex/490em). The plate was shaken (5 s, 700 rpm) before each reading, taken every 22 s for 270 cycles. Reactions consisted of […], 25 μM Ebselen or 20 μM H3 K9Bhn/H3-wt/4-bromobutylboronic acid, and those with enzyme contained 2 μM KDM4A all with 1.1% (v/v) DMSO in 50 mM HEPES (pH 7.5). Compounds and TSQ were added to the plate before initiating the assay with addition of KDM4A using the CLARIOstar injector (FIG. 4d). An internal calibration curve of ZnCl2 (0-2 μM) in 50 mM HEPES (pH 7.5) was included in each experiment to quantitate the concentrations of Zn(II) ejected. Data were normalised by subtracting a no enzyme control for that compound at each time point. Mean±standard deviation (n=3 technical replicates) was plotted for each time point using GraphPad Prism 5.0, representative data from three biological replicates is shown.
# The rate of Zn(II) ejection was calculated from the slope of linear regression plotted over the linear region of Zn(II) ejection (from 946-3982 s) plotted in GraphPad Prism 5.0. […]
smiles,measurement,value
O=c1c2ccccc2[se]n1-c1ccccc1 [Ebselen],Zn(II) ejection rate,> 1663 nM/min
